The supplement of paper PMC8728848
The other results are listed elsewhere or left out.

Legend:
Test in all cases: glycan array binding signal (z-score within array); higher = stronger binding
Settings in all cases: glycan notation: IUPAC condensed, linker removed
[1] = molecular target: Fuc(a1-2)Gal
Summary of the method: (§1)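 Glycan array binding is given as a within-array Z-score, which can be read as non-binding when negative. The arrays, 3228 of them, came from the Consortium for Functional Glycomics database and were retained only where the protein sequence was available. Z-scores were averaged across arrays of the same protein sequence at different concentrations or buffers and across linkers.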

[2] = molecular target: Fuc(a1-2)Gal(b1-3)GalNAc
Summary of the method: as §1

[3] = molecular target: Fuc(a1-2)Gal(b1-3)GalNAc(a1-3)[Fuc(a1-2)]Gal(b1-4)Glc
Summary of the method: as §1

[4] = molecular target: Fuc(a1-2)Gal(b1-3)GalNAc(a1-3)[Fuc(a1-2)]Gal(b1-4)GlcNAc
Summary of the method: as §1

[5] = molecular target: Fuc(a1-2)Gal(b1-3)GalNAc(b1-3)Gal
Summary of the method: as §1

[6] = molecular target: Fuc(a1-2)Gal(b1-3)GalNAc(b1-3)Gal(a1-4)Gal(b1-4)Glc
Summary of the method: as §1

[7] = molecular target: Fuc(a1-2)Gal(b1-3)GalNAc(b1-4)[Neu5Ac(a2-3)]Gal(b1-4)Glc
Summary of the method: as §1

[8] = molecular target: Fuc(a1-2)Gal(b1-3)GlcNAc
Summary of the method: as §1

[9] = molecular target: Fuc(a1-2)Gal(b1-3)GlcNAc(b1-2)Man(a1-3)[Fuc(a1-2)Gal(b1-3)GlcNAc(b1-2)Man(a1-6)]Man(b1-4)GlcNAc(b1-4)GlcNAc
Summary of the method: as §1

[10] = molecular target: Fuc(a1-2)Gal(b1-3)GlcNAc(b1-2)Man(a1-3)[Fuc(a1-2)Gal(b1-3)GlcNAc(b1-2)Man(a1-6)]Man(b1-4)GlcNAc(b1-4)[Fuc(a1-6)]GlcNAc
Summary of the method: as §1

[11] = molecular target: Fuc(a1-2)Gal(b1-3)GlcNAc(b1-3)Gal(b1-4)Glc
Summary of the method: as §1

[12] = molecular target: Fuc(a1-2)Gal(b1-3)GlcNAc(b1-3)GalNAc
Summary of the method: as §1

[13] = molecular target: Fuc(a1-2)Gal(b1-3)GlcNAc(b1-3)[Fuc(a1-2)Gal(b1-3)GlcNAc(b1-6)]GalNAc
Summary of the method: as §1

[14] = molecular target: Fuc(a1-2)Gal(b1-3)GlcNAc(b1-3)[Gal(b1-4)GlcNAc(b1-6)]Gal(b1-4)Glc
Summary of the method: as §1

[15] = molecular target: Fuc(a1-2)Gal(b1-3)GlcNAc(b1-3)[Neu5Ac(a2-6)Gal(b1-4)GlcNAc(b1-6)]Gal(b1-4)Glc
Summary of the method: as §1

[16] = molecular target: Fuc(a1-2)Gal(b1-3)GlcNAc6S
Summary of the method: as §1

[17] = molecular target: Fuc(a1-2)Gal(b1-3)[Fuc(a1-4)]GlcNAc
Summary of the method: as §1

[18] = molecular target: Fuc(a1-2)Gal(b1-3)[Fuc(a1-4)]GlcNAc(b1-2)Man(a1-3)[Fuc(a1-2)Gal(b1-3)[Fuc(a1-4)]GlcNAc(b1-2)Man(a1-3)]Man(b1-4)GlcNAc(b1-4)GlcNAc
Summary of the method: as §1

[19] = molecular target: Fuc(a1-2)Gal(b1-3)[Fuc(a1-4)]GlcNAc(b1-2)Man(a1-3)[Fuc(a1-2)Gal(b1-3)[Fuc(a1-4)]GlcNAc(b1-2)Man(a1-6)]Man(b1-4)GlcNAc(b1-4)[Fuc(a1-6)]GlcNAc(b1-4)[Fuc(a1-6)]GlcNAc
Summary of the method: as §1

[20] = molecular target: Fuc(a1-2)Gal(b1-3)[Fuc(a1-4)]GlcNAc(b1-3)[Fuc(a1-3)[Gal(b1-4)]GlcNAc(b1-6)]Gal(b1-4)Glc
Summary of the method: as §1

[21] = molecular target: Fuc(a1-2)Gal(b1-3)[Fuc(a1-4)]GlcNAc(b1-3)[Gal(b1-4)GlcNAc(b1-6)]Gal(b1-4)Glc
Summary of the method: as §1

[22] = molecular target: Fuc(a1-2)Gal(b1-4)Fuc(a1-3)]GlcNAc(b1-2)Man(a1-3)[Fuc(a1-2)Gal(b1-4)[Fuc(a1-3)]GlcNAc(b1-2)Man(a1-6)]Man(b1-4)GlcNAc(b1-4)GlcNAc
Summary of the method: as §1

[23] = molecular target: Fuc(a1-2)Gal(b1-4)Glc
Summary of the method: as §1

[24] = molecular target: Fuc(a1-2)Gal(b1-4)Glc6S
Summary of the method: as §1

[25] = molecular target: Fuc(a1-2)Gal(b1-4)GlcNAc
Summary of the method: as §1

[26] = molecular target: Fuc(a1-2)Gal(b1-4)GlcNAc(b1-2)Man
Summary of the method: as §1

[27] = molecular target: Fuc(a1-2)Gal(b1-4)GlcNAc(b1-2)Man(a1-3)[Fuc(a1-2)Gal(b1-4)GlcNAc(b1-2)Man(a1-6)]Man(b1-4)GlcNAc(b1-4)GlcNAc
Summary of the method: as §1

[28] = molecular target: Fuc(a1-2)Gal(b1-4)GlcNAc(b1-2)Man(a1-3)[Fuc(a1-2)Gal(b1-4)GlcNAc(b1-2)Man(a1-6)]Man(b1-4)GlcNAc(b1-4)[Fuc(a1-6)]GlcNAc
Summary of the method: as §1

[29] = molecular target: Fuc(a1-2)Gal(b1-4)GlcNAc(b1-2)[Fuc(a1-2)Gal(b1-4)GlcNAc(b1-4)]Man(a1-3)[Fuc(a1-2)Gal(b1-4)GlcNAc(b1-2)Man(a1-6)]Man(b1-4)GlcNAc(b1-4)GlcNAc
Summary of the method: as §1

[30] = molecular target: Fuc(a1-2)Gal(b1-4)GlcNAc(b1-3)Gal(b1-4)GlcNAc
Summary of the method: as §1

B1: CcfD (Bacteroides fragilis), Q5L9G4 (protein)
chain: MKKQNSIYTLLIALLCFVSSCDYLGVSDQLAGGLQNTEQVFDNVSYTKRWYANVFAGIPDYSGINSVNVGAFKNPWTGMCDELVVGYGNSSKYNNSDRNAANMGFHRYGDCYKYIRQANIFLQKAHPIMTTGTQGDQLLEDELTQMKANVRFMRAFYHYLLFEQYGPIILVKDKIYNATEDQDVPRNTVDEVIEYIDSELTAVASELTQEPIFEDKDYRAWPTKGVALAVRAKLWLYAASPLLNGGYREALSVTNPDGTRLFPDYDAGKWEKALAACKDFIDYAEAGRYELYKEYKDDNGAVIDPDKSVYNLFQKYTHEIIWATANNDWGGMNGDAFDRRIAPRCEKNGLGSTGVTQELVDAFYMKDGFPVSATAYLPQSTLYQEEGYGTYKDQNDNFSKKYTNVTVSNRYLNREPRFYNTVFFNGRQWPVSCNQVLFYNGGNSGVQEGQATLTGYMLFKRFNRSVSLTNPGVASQFRPSIIFRLADFYLMYAEAANEVNPNDARVLKYLNLVRERAGLPDIETLNPAIRGNQELQRAAIQRERQIELATEGQRYFDVRRWMIADKNGEGRQNGYVHGMNVRGESNDKEDFNRIVEASQIVFNRKMYLYPMPDSEMRKTKNLVQNPGW
With B1 as the binder, how does the “glycan array binding signal (z-score)” value [1] read?
The value was 0.811.

And the “glycan array binding signal (z-score)” value [2]?
The value was 0.663.

What about the “glycan array binding signal (z-score)” value [3] of the same binder?
Its value is -0.509.

And the “glycan array binding signal (z-score)” value [4]?
Its value is -0.969.

And the “glycan array binding signal (z-score)” value [5]?
The value was -0.437.

And the “glycan array binding signal (z-score)” value [6]?
Its value is 0.286.

What about the “glycan array binding signal (z-score)” value [7] of the same binder?
The value was -0.696.

And the “glycan array binding signal (z-score)” value [8]?
The value was -0.161.

And the “glycan array binding signal (z-score)” value [9]?
Its value is 5.05.

And the “glycan array binding signal (z-score)” value [10]?
Its value is -0.338.

And the “glycan array binding signal (z-score)” value [11]?
The value was -0.841.

What about the “glycan array binding signal (z-score)” value [12] of the same binder?
Its value is 0.213.

And the “glycan array binding signal (z-score)” value [13]?
Its value is -0.2.

What about the “glycan array binding signal (z-score)” value [14] of the same binder?
The value was -0.095.

And the “glycan array binding signal (z-score)” value [15]?
Its value is -0.437.

What about the “glycan array binding signal (z-score)” value [16] of the same binder?
Its value is 0.391.

What about the “glycan array binding signal (z-score)” value [17] of the same binder?
Its value is 0.542.

And the “glycan array binding signal (z-score)” value [18]?
Its value is -0.417.

What about the “glycan array binding signal (z-score)” value [19] of the same binder?
The value was 0.259.

And the “glycan array binding signal (z-score)” value [20]?
The value was 0.194.

And the “glycan array binding signal (z-score)” value [21]?
The value was -0.962.

And the “glycan array binding signal (z-score)” value [22]?
The value was 0.956.

And the “glycan array binding signal (z-score)” value [23]?
The value was -0.502.

And the “glycan array binding signal (z-score)” value [24]?
The value was 0.318.

What about the “glycan array binding signal (z-score)” value [25] of the same binder?
Its value is 1.39.

What about the “glycan array binding signal (z-score)” value [26] of the same binder?
Its value is -0.128.

And the “glycan array binding signal (z-score)” value [27]?
Its value is -0.667.

What about the “glycan array binding signal (z-score)” value [28] of the same binder?
The value was -0.805.

And the “glycan array binding signal (z-score)” value [29]?
Its value is 0.259.

What about the “glycan array binding signal (z-score)” value [30] of the same binder?
Its value is 0.43.
